Laboratory results taken from PubChem BioAssay AID330 (DTP/NCI, 2004).
The list is a part of this screen's results and no random one: it is rich in T/C values a quarter to a half above the control, in often repeated tests (any T/C) and in doses without a T/C. Other doses and runs of a compound stand elsewhere. T/C is the treated group as % of the vehicle group. Some entries give survivors of the animals treated and no T/C: the source holds a T/C of zero for them, seemingly a mark for toxic or unscored doses. Some doses without a T/C left all or most animals alive at the check, yet need not have been tolerated: the source hardly ever lists a survival T/C far under the control, and the zero likely stands for such cases as well. Survivors were counted at the toxicity check, usually on the fifth day, unless a day is given; later deaths do not show. Schedules are NCI's codes, read here as Q, the interval in days (D) or hours (H), X, the number of doses. Some doses were run more than once; the results are listed from low to high. For survival time, this PubChem deposit counts one and a half times the control or more as active, and values a quarter to a half above the control carry no call in these data; other NCI protocols may use other cut-offs. Some T/C values carry the count of animals alive at the toxicity check (mostly the fifth day); where none is given, no animal had died by that day.

System: P388 leukemia ip, CD2F1 mice, survival T/C
Test: NCI In Vivo Anticancer Drug Screen. Data for tumor model P388 Leukemia (intraperitoneal) in CD2F1 (CDF1) mice
Conditions: T/C endpoint: median survival time, higher T/C = longer survival
[1] = dose: 1.25 mg/kg/injection, schedule: Q01DX009 (ip), vehicle: saline with Tween-80
[2] = dose: 50.0 mg/kg/injection, schedule: Q01DX009 (ip), vehicle: Klucel (hydroxypropylcellulose) (HPC)
[3] = dose: 100.0 mg/kg/injection, schedule: Q01DX009 (ip), vehicle: Klucel (hydroxypropylcellulose) (HPC)
[4] = dose: 200.0 mg/kg/injection, schedule: Q01DX009 (ip), vehicle: Klucel (hydroxypropylcellulose) (HPC)
[5] = dose: 240.0 mg/kg/injection, schedule: Q01DX005 (ip), vehicle: saline with Tween-80
[6] = dose: 200.0 mg/kg/injection, schedule: Q01DX009 (ip), vehicle: saline with Tween-80
[7] = dose: 50.0 mg/kg/injection, schedule: Q01DX005 (ip), vehicle: Klucel (hydroxypropylcellulose) (HPC)
[8] = dose: 100.0 mg/kg/injection, schedule: Q01DX005 (ip), vehicle: Klucel (hydroxypropylcellulose) (HPC)
[9] = dose: 200.0 mg/kg/injection, schedule: Q01DX005 (ip), vehicle: Klucel (hydroxypropylcellulose) (HPC)
[10] = dose: 50.0 mg/kg/injection, schedule: Q01DX009 (ip), vehicle: saline with Tween-80
[11] = dose: 50.0 mg/kg/injection, schedule: Q01DX009 (ip), vehicle: distilled water + Tween-80
[12] = dose: 200.0 mg/kg/injection, schedule: Q01DX009 (ip), vehicle: distilled water + Tween-80
[13] = dose: 100.0 mg/kg/injection, schedule: Q01DX009 (ip), vehicle: saline with Tween-80
[14] = dose: 200.0 mg/kg/injection, schedule: Q01DX009 (ip), vehicle: saline
[15] = dose: 25.0 mg/kg/injection, schedule: Q01DX009 (ip), vehicle: saline with Tween-80

Compound: CC(C)Cn1c(Cl)c(C(=O)O)c2ccccc21
- survivor count (dose: 400.0 mg/kg/injection, schedule: Q04DX002 (ip), vehicle: Klucel (hydroxypropylcellulose) (HPC)): 6 of 6

Compound: COC[C@H]1OC(=O)c2coc3c2[C@@]1(C)C1=C(C3=O)[C@@H]2CCC(=O)[C@@]2(C)C[C@H]1OC(C)=O
- T/C (dose: 0.63 mg/kg/injection, schedule: Q01DX009 (ip), vehicle: saline with Tween-80): 134 % of control
- T/C [1]: 130 % of control
- survivor count [1]: 6 of 6
- survivor count (dose: 5.0 mg/kg/injection, schedule: Q01DX009 (ip), vehicle: saline with Tween-80): 3 of 6
- survivor count (dose: 10.0 mg/kg/injection, schedule: Q01DX009 (ip), vehicle: saline with Tween-80): 2 of 6

Compound: CCCCCC1=C/N\C(C#N)=C(C#N)/N=C/C(CCCCC)=C\N\C(C#N)=C(C#N)/N=C\1
- survivor count [2]: 6 of 6
- survivor count [3]: 6 of 6
- survivor count [4]: 6 of 6

Compound: Cc1cnc(I)[nH]1
- survivor count (dose: 400.0 mg/kg/injection, schedule: Q01DX001 (ip), vehicle: saline): 4 of 6

Compound: Cc1cccc(OC(=O)Nc2ccc(C(=O)O)c(O)c2)c1
- survivor count [5]: 3 of 6

Compound: O=C1C(=Cc2cccnc2)C(=O)c2ccccc21
- survivor count [5]: 0 of 6

Compound: O=S(=O)(F)c1ccc(Cl)cc1C[P+](c1ccccc1)(c1ccccc1)c1ccccc1
- T/C (dose: 50.0 mg/kg/injection, schedule: Q01DX001 (ip), vehicle: Klucel (hydroxypropylcellulose) (HPC)): 125 [5 of 6 alive] and 131 % of control
- survivor count (dose: 100.0 mg/kg/injection, schedule: Q01DX001 (ip), vehicle: Klucel (hydroxypropylcellulose) (HPC)): 0 of 6

Compound: CC(C)(C)c1ccc(N)c(N)c1
- survivor count (dose: 200.0 mg/kg/injection, schedule: Q01DX009 (ip), vehicle: DMSO): 1 of 6

Compound: Cc1nc(Br)c(Br)n1C
- survivor count [5]: 0 of 6

Compound: Cc1cccc(C)c1NC1c2ccccc2C=Cc2ccccc21
- survivor count [6]: 6 of 6

Compound: CCN(CC)CCNC(=O)c1cc(Cl)c(C(=O)NO)cc1OC
- survivor count [7]: 0 of 6
- survivor count [8]: 0 of 6
- survivor count [9]: 0 of 6

Compound: Cc1nc2[nH]cc(-c3ccccc3)c2c(=N)n1-c1ccc(F)cc1
- survivor count [7]: 5 of 6
- survivor count [8]: 0 of 6
- survivor count [9]: 0 of 6

Compound: CCC(C)NCC/C(=C\[Si](C)(C)C)c1ccccc1 (stereo not given)
- survivor count (dose: 400.0 mg/kg/injection, schedule: Q01DX001 (ip), vehicle: saline with Tween-80): 3 of 6

Compound: COc1cc2cc[n+]3c(c2cc1OC)-c1c2cc(OC)c(OC)cc2cc[n+]1CC3
- survivor count [10]: 0 of 6

Compound: C1CN2CCCN3CCCN(C1)P23
- survivor count (dose: 400.0 mg/kg/injection, schedule: Q04DX002 (ip), vehicle: saline): 0 of 6

Compound: CN(c1ccccc1)C(C#N)CC(C)(C)C (stereo not given)
- survivor count [9]: 3 of 6

Compound: O=[N+]([O-])c1ccc(NN=NCCCl)cc1
- T/C (dose: 25.0 mg/kg/injection, schedule: Q01DX009 (ip), vehicle: distilled water + Tween-80): 128 % of control
- T/C [11]: 128 % of control
- survivor count (dose: 100.0 mg/kg/injection, schedule: Q01DX009 (ip), vehicle: distilled water + Tween-80): 5 of 5
- survivor count [12]: 0 of 5

Compound: COc1ccc(C2CCc3cc4c(cc3C2=O)OCO4)cc1OC (stereo not given)
- survivor count (dose: 100.0 mg/kg/injection, schedule: Q04DX003 (ip), vehicle: saline with Tween-80): 6 of 6
- survivor count (dose: 400.0 mg/kg/injection, schedule: Q04DX003 (ip), vehicle: saline with Tween-80): 6 of 6

Compound: CC(=O)c1ccccc1N=O
- survivor count (dose: 200.0 mg/kg/injection, schedule: Q01DX001 (ip), vehicle: other): 3 of 6

Compound: CC(=O)Oc1c(Cl)c(Cl)c(C#N)c(Cl)c1C#N
- survivor count [13]: 1 of 6 and 4 of 6
- survivor count [6]: 0 of 6 and 2 of 6

Compound: CCOC(=O)c1ccc(NC(=O)Nc2ccccc2OC)cc1
- survivor count (dose: 30.0 mg/kg/injection, schedule: Q01DX005 (ip), vehicle: Klucel (hydroxypropylcellulose) (HPC)): 5 of 6
- survivor count (dose: 60.0 mg/kg/injection, schedule: Q01DX005 (ip), vehicle: Klucel (hydroxypropylcellulose) (HPC)): 6 of 6
- survivor count (dose: 120.0 mg/kg/injection, schedule: Q01DX005 (ip), vehicle: Klucel (hydroxypropylcellulose) (HPC)): 6 of 6

Compound: O=NN(CCCl)C(=O)Nc1ccc(Br)cn1
- T/C [10]: 130 % of control
- T/C (dose: 109.0 mg/kg/injection, schedule: Q01DX009 (ip), vehicle: saline with Tween-80): 127 % of control
- T/C (dose: 165.0 mg/kg/injection, schedule: Q01DX009 (ip), vehicle: saline with Tween-80): 127 % of control
- survivor count (dose: 250.0 mg/kg/injection, schedule: Q01DX009 (ip), vehicle: saline with Tween-80): 0 of 6

Compound: c1cc2nc(-c3ccc4oc(C5=NCCN5)cc4c3)[nH]c2cc1C1=NCCN1
- survivor count (dose: 100.0 mg/kg/injection, schedule: Q01DX005 (ip), vehicle: saline): 2 of 6
- survivor count (dose: 200.0 mg/kg/injection, schedule: Q01DX005 (ip), vehicle: saline): 0 of 6

Compound: CCCNCCNc1ccc(NCCNCCC)c2c1C(=O)c1ccccc1C2=O
- T/C [11]: 125 % of control
- survivor count (dose: 64.0 mg/kg/injection, schedule: Q01DX009 (ip), vehicle: acid diluted with saline): 1 of 8
- survivor count [12]: 0 of 6

Compound: CN1CCCN(C(c2ccccc2)c2ccc(Br)cc2)CC1 (stereo not given)
- survivor count [14]: 0 of 6
- survivor count (dose: 400.0 mg/kg/injection, schedule: Q01DX009 (ip), vehicle: saline): 0 of 6

Compound: C/C(=N\NC(=S)N(C)C)c1ccccn1
- survivor count (dose: 12.5 mg/kg/injection, schedule: Q01DX009 (ip), vehicle: saline with Tween-80): 4 of 6
- survivor count [15]: 2 of 6

Compound: CC1(CCc2ccc(N(CCCl)CCCl)cc2)NC(=O)NC1=O (stereo not given)
- T/C (dose: 12.5 mg/kg/injection, schedule: Q01DX009 (ip), vehicle: Klucel (hydroxypropylcellulose) (HPC)): 145 % of control
- T/C (dose: 25.0 mg/kg/injection, schedule: Q01DX009 (ip), vehicle: Klucel (hydroxypropylcellulose) (HPC)): 126 and 134 % of control [5 of 6 alive]
- survivor count [2]: 6 of 6
- survivor count [3]: 6 of 6
- survivor count [4]: 2 of 6

Compound: Nc1nc(N)c2c(Cl)c(CNc3ccc(C(=O)NC(CC(=O)O)CC(=O)O)cc3)ccc2n1
- survivor count (dose: 12.5 mg/kg/injection, schedule: Q01DX005 (ip), vehicle: saline with Tween-80): 6 of 6
- survivor count (dose: 25.0 mg/kg/injection, schedule: Q01DX005 (ip), vehicle: saline with Tween-80): 5 of 6
- survivor count (dose: 50.0 mg/kg/injection, schedule: Q01DX005 (ip), vehicle: saline with Tween-80): 6 of 6
- survivor count (dose: 100.0 mg/kg/injection, schedule: Q01DX005 (ip), vehicle: saline with Tween-80): 5 of 6
- survivor count (dose: 200.0 mg/kg/injection, schedule: Q01DX005 (ip), vehicle: saline with Tween-80): 6 of 6

Compound: CN(c1ccccc1)P(C)(Cl)(c1ccccc1)c1ccccc1
- survivor count [15]: 0 of 6
- survivor count [10]: 0 of 6
- survivor count [13]: 0 of 6

Compound: Cc1c(-c2ccccc2)ccnc1/C=N/NC(N)=S
- T/C (dose: 50.0 mg/kg/injection, schedule: Q01DX009 (ip), vehicle: saline): 129 and 132 % of control
- survivor count [14]: 4 of 6

Compound: CNc1nc(-c2ccc(OC)cc2)c(-c2ccc(OC)cc2)[nH]1
- T/C (dose: 50.0 mg/kg/injection, schedule: Q04DX002 (ip), vehicle: saline with Tween-80): 125 % of control
- survivor count (dose: 100.0 mg/kg/injection, schedule: Q04DX002 (ip), vehicle: saline with Tween-80): 0 of 6

Compound: CC12CCC3C(C1)C(C(=O)O2)C(=O)OC3(C)C (stereo not given)
- survivor count (dose: 400.0 mg/kg/injection, schedule: Q01DX009 (ip), vehicle: Klucel (hydroxypropylcellulose) (HPC)): 0 of 6
